# Source: the supplement of paper PMC5770031
# The other results are listed elsewhere or left out. This data set is noisy: repeats of one test often differ as much as different tests do.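 ATM8/balancer (normal ATM) heterozygous flies were crossed on treated food; parents laid eggs 5–6 days, offspring developed ~12 days, so parents and larvae ingested compound. Readout: fraction of emerged adults homozygous for ATM8 versus 2% DMSO controls. Compounds were neutral at 10–20% homozygotes, harmful below 10%, helpful above 20%.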
# Test system: Drosophila melanogaster ATM8 (temperature-sensitive ATM allele)
# Test: fraction of eclosed F1 progeny that are homozygous ATM8 (rescue of developmental lethality); higher = more rescue of ATM8 developmental lethality; extreme values may be limits of the assay
# Settings: compound concentration applied to food 0.2 mM; 21 °C
row,Compound,fraction of eclosed F1 progeny that are homozygous ATM8
1,COc1ccc(-c2cc(=O)c3c(OC)c(OC)c(OC)c(OC)c3o2)cc1OC,0.104
2,CC/C=C\C/C=C\C/C=C\C/C=C\C/C=C\C/C=C\CCC(=O)O,0.177
3,CCCCC(CC)COc1ccc(-c2nc(-c3ccc(OC)cc3)nc(-c3ccc(OCC(CC)CCCC)cc3O)n2)c(O)c1 (centres undefined),0.286
4,CCC[C@@H]1C[C@@H](C(=O)N[C@@H]([C@H]2O[C@H](SC)[C@H](O)[C@@H](O)[C@H]2O)[C@@H](C)O)N(C)C1,0
5,C=C1C(N)CC2CC1C2(C)C (stereo not drawn) [3-AMINO-beta-PINENE],0.0833
6,CC(C)=CCc1c(O)cc2oc(C)cc(=O)c2c1O,0.075
7,CN1C(C(=O)Nc2ccccn2)=C(O)c2sc(Cl)cc2S1(=O)=O,0.0909
8,CC12CC3CC(C)(C1)CC(N)(C3)C2,0.0333
9,COc1ccc(-c2cc(=O)c3c(OC)c(OC)c(OC)c(OC)c3o2)cc1,0
10,O=c1n(Cl)c(=O)n(Cl)c(=O)n1Cl,0.254
11,CS(C)(=O)=O,0.25
12,Nc1ccc(S(=O)(=O)O)cc1.Nc1ccc(S(=O)(=O)O)cc1.[Zn],0.0909
13,CCOc1ccc(Cc2nccc3cc(OCC)c(OCC)cc23)cc1OCC,0.102
14,O=C(Nc1ccc([N+](=O)[O-])cc1Cl)c1cc(Cl)ccc1O,0.127
15,CCCCc1oc2ccccc2c1C(=O)c1cc(I)c(OCCN(CC)CC)c(I)c1,0.235
16,O=C(O)c1cccnc1,0.152
17,N[C@@H](COP(=O)(O)O)C(=O)O,0.154
18,Cc1cccc(N(C)C(=S)Oc2ccc3ccccc3c2)c1,0.0816
19,O=c1cccc2ccc(O)c(O)c2c1O,0.179
20,O=c1[nH]c(=O)n([C@H]2C[C@H](O)[C@@H](CO)O2)cc1I,0.0556
21,COc1ccc(-c2ccc3cc(C(=O)O)ccc3c2)cc1C12CC3CC(CC(C3)C1)C2,0.0968
22,CNC1CC(N)C(O)C(OC2OC(CO)C(O)C3OC4(OC(C(N)CO)C(O)C(O)C4O)OC23)C1O (centres undefined),0.244
23,CCCC(C)C1(CC)C(=O)NC(=O)NC1=O (centres undefined),0.281
24,C=CCc1ccc2c(c1)OCO2,0.238

row,Compound,fraction of eclosed F1 progeny that are homozygous ATM8
1,O=C(O)c1cc2cc(F)ccc2[nH]1,0.171
2,NNC(=O)c1ccncc1,0.0789
3,CC1(C)CC2C1CCC1(C)OC1CCC2(C)O (centres undefined),0.0694
4,CC1(C)O[C@@H]2C[C@H]3[C@@H]4C[C@H](F)C5=CC(=O)CC[C@]5(C)[C@H]4[C@@H](O)C[C@]3(C)[C@]2(C(=O)CO)O1,0.136
5,CCC(=O)OCC(=O)[C@@]1(OC(=O)CC)[C@@H](C)C[C@H]2[C@@H]3CCC4=CC(=O)C=C[C@]4(C)[C@@]3(F)[C@@H](O)C[C@@]21C,0.0308
6,CC1=CCc2c(cc3oc(C)cc(=O)c3c2O)OC1,0.093
7,O[n+]1ccccc1S.O[n+]1ccccc1S.[Zn+2],0
8,CC(=O)OCC(=O)[C@@]1(O)CC[C@H]2[C@@H]3CCC4=CC(=O)C=C[C@]4(C)[C@H]3[C@@H](O)C[C@@]21C,0.237
9,C[C@]12CCC(=O)C=C1CC[C@@H]1[C@@H]2[C@@H](O)C[C@@]2(C)[C@H]1CC[C@]2(O)C(=O)COP(=O)(O)O,0.194
10,Cc1c(Nc2ncccc2C(=O)O)cccc1C(F)(F)F,0.219
11,CC[C@H](c1ccc(O)cc1)[C@@H](CC)c1ccc(O)cc1,0.264
12,O=C(Cc1ccccc1)NO,0.0488
13,COc1ccc(-c2cc(=O)c3c(OC)cc(OC)cc3o2)cc1,0.149
14,O=C(O)CCCCCCCC(O)C(O)CCCCCCO (centres undefined),0.143
15,COc1ccc2c(=O)cc(-c3ccccc3OC)oc2c1,0.0323
16,COC(=O)[C@@]1(C)CCC[C@]2(C)c3ccc(O)c(C(C)C)c3CCC12 (some centres undefined),0.476
17,CC1(C)O[C@@H]2C[C@H]3[C@@H]4C[C@H](F)C5=CC(=O)C=C[C@]5(C)[C@H]4[C@@H](O)C[C@]3(C)[C@]2(C(=O)CO)O1,0.154
18,C[C@H](CS)C(=O)N1CCC[C@H]1C(=O)O,0.214
19,S=C=NCc1ccccc1,0.212
20,CN(Cc1cc(Br)cc(Br)c1N)C1CCCCC1,0.0833
21,CC(=O)/C(=C\c1ccccc1)CC(=O)O,0.0732
22,C[C@]12CCC(=O)C=C1C=C[C@@H]1[C@@H]2CC[C@@]2(C)[C@H]1CC[C@@]2(O)CCC(=O)O,0.0714
23,CC(C)NCC(O)COc1cccc2[nH]ccc12 (centres undefined),0.0769
24,CC(C)=CCC[C@@H](C)[C@@H]1CC[C@]2(C)C3=C(CC[C@@]12C)[C@@]1(C)CC[C@H](O)C(C)(C)[C@@H]1CC3,0.0909

# Reformatted tab-delimited: 5 of the compounds above.
row	Compound	fraction of eclosed F1 progeny that are homozygous ATM8
14	O=C(O)CCCCCCCC(O)C(O)CCCCCCO (centres undefined)	0.143
15	COc1ccc2c(=O)cc(-c3ccccc3OC)oc2c1	0.0323
16	COC(=O)[C@@]1(C)CCC[C@]2(C)c3ccc(O)c(C(C)C)c3CCC12 (some centres undefined)	0.476
17	CC1(C)O[C@@H]2C[C@H]3[C@@H]4C[C@H](F)C5=CC(=O)C=C[C@]5(C)[C@H]4[C@@H](O)C[C@]3(C)[C@]2(C(=O)CO)O1	0.154
18	C[C@H](CS)C(=O)N1CCC[C@H]1C(=O)O	0.214

# The list goes on.

row,Compound,fraction of eclosed F1 progeny that are homozygous ATM8
1,COC(=O)[C@H]1[C@H]2C[C@H]3c4[nH]c5ccccc5c4CCN3C[C@H]2CC[C@@H]1O,0.093
2,C=C(C)[C@@H]1CC[C@]2(C)CC[C@]3(C)[C@H](CC[C@@H]4[C@@]5(C)CC[C@H](OC(C)=O)C(C)(C)[C@@H]5CC[C@]43C)[C@@H]12,0.0323
3,CC(CN(C)C)CN1c2ccccc2CCc2ccccc21 (centres undefined),0.177
4,C[C@H]1[C@H]2CC[C@H]3[C@@H]4CC=C5C[C@@H](N(C)C)CC[C@]5(C)[C@H]4CC[C@]23CN1C,0.207
5,CC1=C(/C=C/C(C)=C/C=C/C(C)=C/C=C/C=C(C)/C=C/C=C(C)/C=C/C(=O)[C@]2(C)C[C@@H](O)CC2(C)C)C(C)(C)C[C@H](O)C1,0.269
6,C[N+](C)(C)C[C@H](O)CC(=O)[O-],0.19
7,Cc1cccc(C)c1NC(=O)CN1CCCC1=O,0.08
8,C=CC1=C(C)/C(=C/c2[nH]c(Cc3[nH]c(/C=C4\NC(=O)C(C)=C4C=C)c(C)c3CCC(=O)O)c(CCC(=O)O)c2C)NC1=O,0
9,C=CC[N+]1([C@H]2C[C@H]3[C@@H]4CC[C@H]5C[C@H](O)[C@@H](N6CCOCC6)C[C@]5(C)[C@H]4CC[C@]3(C)[C@H]2OC(C)=O)CCCC1,0.109
10,CO[C@H]1[C@H](O)[C@H](O[C@H]2CC[C@@]3(C=O)[C@H](CC[C@@H]4[C@@H]3CC[C@]3(C)[C@@H](C5=CC(=O)OC5)CC[C@]43O)C2)O[C@@H](C)[C@@H]1O,0.189
11,CC(C)(C)NC(=O)[C@H]1CC[C@H]2[C@@H]3CC[C@H]4NC(=O)C=C[C@]4(C)[C@H]3CC[C@]12C,0.069
12,CC(C)=CCCC1(C)C=Cc2c(O)c3c(c(CC=C(C)C)c2O1)OC12C(=CCCC1C(C)(C)O[C@@]2(C/C=C(\C)C(=O)O)C(=O)O)C3=O (some centres undefined),0.0976
13,C=C1CC[C@H](O)C/C1=C/C=C1\CCC[C@]2(C)[C@@H]([C@H](C)/C=C/[C@H](C)C(C)C)CC[C@@H]12,0.0312
14,Nc1nc(N)c2nc(-c3ccccc3)c(N)nc2n1,0.087
15,CC(=O)O[C@@H]1[C@H]2CC[C@H]3[C@@](C)(O)[C@@H]4C[C@H](O)C(C)(C)[C@@]4(O)[C@H](O)C[C@@]13C[C@@]2(C)O,0.182
16,C=C1C(=O)O[C@H]2[C@H]1CC/C(C)=C/CC[C@@]1(C)O[C@@H]21,0.111
17,COc1cccc(O)c1O,0
18,CCCCOc1ccc(C(=O)CCN2CCCCC2)cc1,0.0238
19,C[C@H](CC(=O)[C@@H]1OC1(C)C)[C@H]1C(=O)C[C@@]2(C)C3=CC[C@H]4C(C)(C)[C@@H](O[C@@H]5OC[C@@H](O)[C@H](O)[C@H]5O)CC[C@@]45C[C@@]35[C@@H](O)C[C@]12C,0.0667
20,COc1ccc(CCC(=O)c2c(O)cc(O[C@@H]3O[C@H](CO)[C@@H](O)[C@H](O)[C@H]3O[C@@H]3O[C@@H](C)[C@H](O)[C@@H](O)[C@H]3O)cc2O)cc1O,0.233
21,Cn1nnc2c(C(N)=O)ncn2c1=O,0.0571
22,CC[C@@H](C(=O)[C@@H](C)[C@@H](O)[C@H](C)[C@@H]1O[C@@H]([C@@H](CC)C(=O)O)CC[C@@H]1C)[C@H]1O[C@]2(C=C[C@@H](O)[C@]3(CC[C@@](C)([C@H]4CC[C@](O)(CC)[C@H](C)O4)O3)O2)[C@H](C)C[C@@H]1C,0.2
23,CN1[C@@H]2CC[C@H]1C[C@@H](OC(=O)C(O)c1ccccc1)C2 (some centres undefined),0.25
24,Nc1ccc(/N=N/c2ccccc2)c(N)n1,0.0882

row,Compound,fraction of eclosed F1 progeny that are homozygous ATM8
1,C[C@H](N[C@@H](CCc1ccccc1)C(=O)O)C(=O)N1Cc2ccccc2C[C@H]1C(=O)O,0.0392
2,CCc1cc(Cl)c(OC)c(C(=O)NC[C@@H]2CCCN2CC)c1O,0.0811
3,CN(C)CCOC(=O)C(c1ccccc1)C1(O)CCCC1 (centres undefined),0
4,O=C(/C=C/c1ccccc1)c1ccc(O)cc1,0.151
5,O=C(O)c1ccc2c(c1)OCO2,0.214
6,O=c1ccc2cc(O[C@@H]3O[C@H](CO)[C@@H](O)[C@H](O)[C@H]3O)c(O)cc2o1,0.163
7,CCC(=O)O[C@]1(C(=O)SCF)[C@H](C)C[C@H]2[C@@H]3C[C@H](F)C4=CC(=O)C=C[C@]4(C)[C@@]3(F)[C@@H](O)C[C@@]21C,0.132
8,NCCCS(=O)(=O)O,0.156
9,Cc1c(S(=O)(=O)O)oc2c1C(=O)C(=O)c1c-2ccc2c1CCCC2(C)C,0.0833
10,Nc1nc(/C(=C/CC(=O)O)C(=O)N[C@@H]2C(=O)N3C(C(=O)O)=CCS[C@H]23)cs1,0.04
11,O=C1c2ccccc2-c2cccc3cccc1c23,0.0962
12,C[C@@H]1CC[C@@]2(OC1)O[C@H]1C[C@H]3[C@@H]4CC=C5C[C@@H](O)CC[C@]5(C)[C@H]4CC[C@]3(C)[C@H]1[C@@H]2C,0.3
13,Nc1ccc(C(=O)O)c(O)c1,0.132
14,NCC(O)c1ccc(O)cc1 (centres undefined),0.236
15,CC(=O)Nc1ccc(S(=O)(=O)c2ccc(NC(C)=O)cc2)cc1,0.232
16,O=C(O)c1ccccc1Nc1cccc(C(F)(F)F)c1,0
17,OCCc1ccccc1,0.176
18,Clc1ccc(C(c2ccccc2Cl)C(Cl)Cl)cc1 (centres undefined),0.139
19,O=C1O[C@H]([C@@H](O)CO)C(O)=C1O,0.24
20,O=[N+]([O-])c1ccc(O)c2ncccc12,0.109
21,NNC(=O)c1ccncc1.Nc1ccc(C(=O)O)c(O)c1,0.0588
22,CC(O)(CC(=O)O)CC(=O)O,0.26
